# Primary screen of a compound library

Protein sequences, listed by entry. Tags and fused reporters are not part of them. Residues count along the entry.
UniProt A4I591, 1-473: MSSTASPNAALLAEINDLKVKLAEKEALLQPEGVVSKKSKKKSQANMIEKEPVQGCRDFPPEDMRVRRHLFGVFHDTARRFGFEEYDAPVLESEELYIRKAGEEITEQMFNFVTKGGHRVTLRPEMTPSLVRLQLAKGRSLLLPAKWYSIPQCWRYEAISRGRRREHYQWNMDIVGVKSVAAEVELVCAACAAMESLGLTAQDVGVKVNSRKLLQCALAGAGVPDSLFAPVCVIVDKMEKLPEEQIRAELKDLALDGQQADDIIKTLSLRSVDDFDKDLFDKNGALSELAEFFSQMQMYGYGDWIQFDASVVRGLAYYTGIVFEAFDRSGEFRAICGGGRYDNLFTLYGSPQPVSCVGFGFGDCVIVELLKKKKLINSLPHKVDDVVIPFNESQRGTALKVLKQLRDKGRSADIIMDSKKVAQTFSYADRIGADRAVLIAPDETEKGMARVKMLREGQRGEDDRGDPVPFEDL

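Histidine-tRNA ligase, Leishmania infantum (UniProt A4I591). Enzyme assay of histidyl-tRNA synthetase; the read-out is not stated. Compounds at 30 µM. Direction is inferred from retests: higher values go with stronger inhibition. The assay is labelled LdHisRS but filed under L. infantum. Size under these conditions: about 69,000 compounds, about 410 of them at 50% or above in at least one test.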

Values are the deposited “Percent Effect”, in %. How 0% and 100% were set is not recorded. Most values in the screen are low, and negative values occur. Compounds were drawn at random from those tested, without regard to their results.

| compound | Percent Effect |
|---|---|
| `CN(C)C[C@H]1OC[C@@H]2CCN(C(=O)c3ccco3)C[C@@H]21` | 9.434 |
| `COc1ccc(C2CCCN2C(=O)NCCCn2cccn2)cc1` (stereo not shown) | 15.18 |
| `Cc1nn(C)c(N(C)C)c1CNCc1ccccc1CO` | 9.565 |
| `Cc1cnc(CN(C)Cc2cc3c(cc2OC(F)F)OCO3)o1` | 17.95 |
| `c1ccc(-c2nc(CN3CCn4c(nnc4C4CC4)C3)co2)cc1` | 17.24 |
| `Cc1noc(CNC(=O)C2CSCCC(=O)N2)n1` (stereo not shown) | 9.756 |
| `Cc1ccccc1C(C(=O)N(Cc1cnn(C)c1)CC(C)C)N(C)C` (stereo not shown) | 7.463 |
| `COc1cc(CN2CCCC(Nc3cccc(F)c3)C2)cc(Cl)c1O` (stereo not shown) | 1.639 |
| `O=c1c(NCCc2ccc(O)cc2)c(NCc2ccco2)c1=O` | 25 |
| `COc1ccc(F)c(CN2CCCC(O)(CNCc3ccoc3)C2=O)c1` (stereo not shown) | 5.714 |
| `CCN(Cc1cccs1)S(=O)(=O)N(C)C(C)C` | 6.593 |
| `CCC(C)N(CC)C(=O)c1ccc2[nH]nnc2c1` (stereo not shown) | 18.09 |
| `O=C(NCc1ccco1)Nc1cccc(S(=O)(=O)C(F)F)c1` | 15.38 |
| `CCn1ccnc1CN1CCN(Cc2cccnc2)CC1C` (stereo not shown) | 15.29 |
| `CCn1cnnc1CNC(=O)N1CCN(CC(C)C)CC1` | 11.5 |
| `CCn1cnnc1CNC(=O)N1CCN(c2ccc(OC)cc2)CC1` | 13.91 |
| `CS(=O)(=O)NCc1n[nH]c2c1CCN(C(=O)c1ccsc1)C2` | -5.66 |
| `N#Cc1ccc(CN2CCC(c3ccnn3CCO)CC2)cc1` | 22.73 |
| `CCc1nc(CN2CCCN(C(=O)c3cccn3C)CC2)cs1` | 16 |
| `COc1cccc(N2CCN(C(=O)COc3c(C)occc3=O)CC2)c1` | 10.53 |
| `N#Cc1cccc(CN2CC[C@@H]3[C@@H]2CC(=O)N3Cc2cccnc2)c1` | 12.41 |
| `COCCC(=O)N1CCC2(CN(Cc3cccc(F)c3)C2)C1` | 3 |
| `Cc1cc(NC(=O)CN2CCCC2c2noc(C(C)C)n2)on1` (stereo not shown) | 12.07 |
| `COC(=O)CN1CCSC(c2ccccc2)C1` (stereo not shown) | 2.5 |
| `CC(C)c1cnc(CN(C)C2CCN(CCCc3cnn(C)c3)C2)o1` (stereo not shown) | 13.79 |
| `CC(C)CNC(=O)c1ccc2c(c1)nc1n2CCN(Cc2ccco2)C1` | 20 |
| `CCCS(=O)(=O)NCc1cccnc1Oc1ccc(C)c(F)c1F` | 6.452 |
| `O=C(NCCC1Cc2ccccc2C1)N1CCCC(O)C1` (stereo not shown) | 3.968 |
| `CCC(Nc1ccc(Oc2ccc(C#N)cc2OC)cc1)C(N)=O` (stereo not shown) | 17.54 |
| `CN(c1ncccc1C#N)C1CCN(CCc2ccncc2)CC1` | 23.94 |
| `CN(CC(=O)Nc1ccccc1C(=O)NC1CC1)Cc1ccccc1Cl` | 12.82 |
| `Cc1cccc(S(=O)(=O)N2C[C@@H]3C[C@@H](c4nnc(C)[nH]4)O[C@@H]3C2)c1` | 26.92 |
| `c1cnn(CC2CCCCN2Cc2noc(C3CC3)n2)c1` (stereo not shown) | 8.929 |
| `Cc1nn(C)c(N(C)C)c1CNC(C)c1cccnc1` (stereo not shown) | 6.557 |
| `CC(NC(=O)C1CCCCC1)c1cc(O)nc(-c2cccnc2)n1` (stereo not shown) | 9.79 |
| `OC(CN1CCC(c2ccn[nH]2)CC1)c1ccc(F)cc1` (stereo not shown) | 10.71 |
| `O=C(CCn1ccnc1)N1CCC(c2nnc(-c3ccccn3)o2)CC1` | 6.993 |
| `Cc1nc(CN2CCCC(CCNS(C)(=O)=O)C2)c[nH]1` (stereo not shown) | 11.43 |
| `CCCc1nc(N(C)CCN2CCCCCC2)c2cnn(C)c2n1` | 49.12 |
| `CCCC(=O)N1CCC2(CC1)OCCO2` | 18.58 |
| `CCc1cc(=O)n(CC(=O)N2CCCC2)c(-c2ccc(F)cc2)n1` | 20.99 |
| `CN1CCCC(C(=O)N2CCC(Oc3ccccn3)CC2)C1` (stereo not shown) | 12.17 |
| `CCC(CCO)NS(=O)(=O)c1ccc(Br)cn1` (stereo not shown) | 8.772 |
| `CCC(=O)N1CCc2[nH]cnc2C12CCN(C1CCOCC1)CC2` | 13.7 |
| `CCC(CO)NC(=O)Nc1cc(F)ccc1SCC(F)F` (stereo not shown) | 10.96 |
| `COc1ccccc1C(=O)N1CCCC1Cn1cc(C)cn1` (stereo not shown) | 14.29 |
| `CN(CCOc1ccc(C#N)cc1)CC1CCS(=O)(=O)C1` (stereo not shown) | 11.67 |
| `CC(C)CN1C(=O)CC[C@H]2CN(Cc3ncc[nH]3)CC[C@H]21` | -1.333 |
| `Cc1nc(O)ccc1C(=O)NCc1ncccc1F` | 3.125 |
| `CC(C)c1ccc(OCCC(=O)N2CCCN(C(N)=O)CC2)cc1` | 25 |
| `CCc1nc(C2CCCN(C(=O)c3cn(C)nc3C)C2)no1` (stereo not shown) | -12.31 |
| `CCN(Cc1cccs1)C(=O)c1ccc(=O)n(C)c1` | 16.13 |
| `O=C(c1cc(-c2ccco2)nc2c(Cl)cccc12)N1CC[C@H]2CNC[C@H]21` | 40 |
| `CCC(=O)N1CCN(C(=O)NCCOc2ccc3c(c2)CCC3)CC1` | 13.89 |
| `Cc1nnsc1C(=O)NCc1cccnc1N(C)Cc1ccccc1` | 8.824 |
| `O=C(OC1CCC1)c1ncccc1C(F)(F)F` | 5.983 |
| `COCc1nnc(C(=O)N(C)Cc2ccc(OC)cc2)o1` | 10.75 |
| `Cc1noc(C)c1CC(=O)NCCc1cccs1` | 11.11 |
| `Cc1ncsc1CN1CC[C@H]2OCC[C@@]2(C(=O)N2CCOCC2)C1` | 7.965 |
| `CN(C)C(=O)c1coc(COc2ccccc2)n1` | 0.885 |
| `O=C(c1cccc(S(=O)(=O)NCCc2nccs2)c1)N1CCOCC1` | 10.4 |
| `COCc1nn(C(C)C)c2c1CCN(Cc1ccsc1)C2` | 22.58 |
| `C[C@H]1C[C@@H]2CCN(Cc3nccs3)C[C@H]2O1` | 8.547 |
| `CC1CCN(CCNC(=O)c2sccc2C2CC2)CC1` | 4 |
| `CN1CCC2(C=C(C(=O)N3CCCC3)c3ccccc32)CC1` | 4.11 |
| `CCc1c(C)nc2cc(C3CCN(Cc4ccc(F)cc4)C3)nn2c1O` (stereo not shown) | 11.46 |
| `Cc1ccc2c(c1)cc(CN1CC[C@](C)(O)[C@H](C)C1)n2C` | 5 |
| `CC(=O)N1CCCn2nc(CNS(=O)(=O)c3cc(C)cs3)cc2C1` | 11.43 |
| `CCn1cnnc1CNC(=O)N1CCN(c2ccccc2OC)CC1` | 15.65 |
| `Cc1nc(CN2C(=O)C[C@@H]3[C@@H]2CCN3S(=O)(=O)C2CC2)cs1` | 18.09 |
| `c1cnc2c(c1)nc1n2[C@@H](CNCc2nccs2)COC1` | 19.44 |
| `O=C(NC1CC1)[C@H]1C[C@H]2OCC[C@H]2N(Cc2ccc(F)cc2)C1` | 2.778 |
| `COc1cc(N2C[C@H]3CN(C(=O)c4cnccn4)C[C@H]3C2)ncn1` | 5.263 |
| `CCc1cc(C(C)Nc2nc(-c3cccnc3)nc3c2CNC3)on1` (stereo not shown) | 17.14 |
| `Cc1nonc1OCCNC(=O)CCCc1ccc(Cl)cc1` | 5.747 |
| `CC(=O)NCc1ccc(S(=O)(=O)NC(=O)c2ccc3c(c2)CCO3)s1` | 0 |
| `CCn1c(C)nnc1SCCNc1cc(N2CCOCC2)ncn1` | 10.2 |
| `CN(C)CCN1C[C@@H]2CN(c3ccccc3)C[C@@H]2C1=O` | 6.364 |
| `Cc1nc(CN2CCCC(Cn3cncn3)C2)no1` (stereo not shown) | -1.754 |
| `CC(C)c1ccc(C(C)N2CCCN(C(N)=O)CC2)cc1` (stereo not shown) | 17.2 |
| `O=C(Nc1nnc(C(F)F)s1)N[C@H](CCO)c1ccccc1` | 3.571 |
| `CS(=O)(=O)CCN1CCC2(CCCN(C3CCOCC3)C2=O)C1` (stereo not shown) | 7.619 |
| `Cc1ccc(O)c(CNC2CCc3nc(C(C)C)nn3C2)n1` (stereo not shown) | 22.86 |
| `Cc1ccc(CN2C[C@H]3C(=O)N(CC4CC4)C[C@@]3(C(=O)O)C2)c(F)c1F` | 0 |
| `CCNC(=O)NC(=O)C(C)N1CCCc2cc(OC)ccc2C1` (stereo not shown) | 10.83 |
| `CSCC(CCO)Nc1cccc(C(F)(F)F)n1` (stereo not shown) | 1.493 |
| `CC(Cn1cccn1)NC(=O)NCc1ccnc(OC2CCCC2)c1` (stereo not shown) | 15.52 |
| `CC(=O)NCc1ccc(C(=O)N2CCCC2c2cnn(C)c2)s1` (stereo not shown) | 5.769 |
| `Cc1cnccc1CNCc1ccc(OC23CCCN(CC2)C3)cc1` (stereo not shown) | 36.47 |
| `O=C(c1cccc(F)c1)N1CCC2(CC1)CC(N1CCOCC1)C2` | 2.752 |

The first 6 entries again:

compound	Percent Effect
CN(C)C[C@H]1OC[C@@H]2CCN(C(=O)c3ccco3)C[C@@H]21	9.434
COc1ccc(C2CCCN2C(=O)NCCCn2cccn2)cc1 (stereo not shown)	15.18
Cc1nn(C)c(N(C)C)c1CNCc1ccccc1CO	9.565
Cc1cnc(CN(C)Cc2cc3c(cc2OC(F)F)OCO3)o1	17.95
c1ccc(-c2nc(CN3CCn4c(nnc4C4CC4)C3)co2)cc1	17.24
Cc1noc(CNC(=O)C2CSCCC(=O)N2)n1 (stereo not shown)	9.756

Source: ChEMBL document CHEMBL3988442, “University of Dundee, Small-Polar-MMV Screening Library” (2021).